Laboratory results as given in patent publication US12077555B2, “STAT degraders and uses thereof” (Kymera Therapeutics, Inc., priority 2019, dated 2024).
Where two headings read alike, the source gives them in different places. The structures given here were assigned with low confidence; some may be wrong.

By UniProt entry, the sequences of proteins in these tests, tags left out.
UniProt P40763, whole entry: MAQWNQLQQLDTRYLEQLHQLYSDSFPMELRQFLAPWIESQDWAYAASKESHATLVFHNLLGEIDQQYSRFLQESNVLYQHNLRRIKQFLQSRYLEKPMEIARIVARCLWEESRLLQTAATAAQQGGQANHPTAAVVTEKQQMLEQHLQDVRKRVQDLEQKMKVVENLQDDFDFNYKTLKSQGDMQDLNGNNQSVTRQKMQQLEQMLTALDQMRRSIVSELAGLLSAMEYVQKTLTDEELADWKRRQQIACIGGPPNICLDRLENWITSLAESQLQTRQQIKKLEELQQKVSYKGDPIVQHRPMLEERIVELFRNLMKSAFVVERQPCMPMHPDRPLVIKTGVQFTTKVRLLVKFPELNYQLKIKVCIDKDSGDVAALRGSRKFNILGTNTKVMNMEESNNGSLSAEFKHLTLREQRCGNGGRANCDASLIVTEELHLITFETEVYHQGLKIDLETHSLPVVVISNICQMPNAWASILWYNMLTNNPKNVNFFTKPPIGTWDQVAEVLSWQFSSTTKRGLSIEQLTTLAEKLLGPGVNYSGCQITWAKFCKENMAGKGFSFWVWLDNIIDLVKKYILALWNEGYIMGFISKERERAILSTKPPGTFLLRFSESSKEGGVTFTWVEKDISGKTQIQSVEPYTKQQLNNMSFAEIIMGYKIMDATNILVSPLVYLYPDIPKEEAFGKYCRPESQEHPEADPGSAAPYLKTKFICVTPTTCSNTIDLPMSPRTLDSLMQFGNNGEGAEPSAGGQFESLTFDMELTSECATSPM

Assays:
STAT3 [1] = molecular target: T1, STAT3 (Homo sapiens, UniProt P40763); experiment: Quantitation of STAT3 degradation in A549 cells by Western blot; assay type: cell-based
Procedure: Degradation of total cellular STAT3 protein in A549 was quantitatively measured using SDS-PAGE and Western blot analysis. A549 cells (5×10^5 cells/well, 2 mL) were seeded into 6-well plates and were incubated in the incubator under 5% CO2 overnight to reach ˜80% confluency. The next day, the culture medium was changed with 1 ml fresh media. Then, 1 mL of media containing 2× compound solution was added into the well to make the final concentration of 30 μM, 10 μM, 3 μM, 1 μM, 0.3 μM and 0 μM (DMSO). The media was thoroughly mixed and incubated for 24 hours at 37° C. under 5% CO2. Then, the culture media was removed from the assay plates and the cells were washed with ice-cold PBS twice. To prepare cell lysates, 200 ul pre-chilled RIPA lysis buffer (Boston BioProducts BP-115D) with protease/phosphatase inhibitor (Roche 05892791001/Roche 04906837001) was added directly into the well to lyse the cells for 20 minutes on ice. The cell lysates were then transferred to centrifuge tubes. Insoluble part of lysates was removed by centrifuging the lysates at 13000 rpm for 20 minutes. The supernatant was then collected and mixed with 5× loading buffer (Beyotime Bio P0015) to make the final samples for SDS-PAGE analysis. The samples were heated at 100° C. for 10 minutes and cool to room temperature before centrifuging at 13000 rpm for 20 minutes. To analyze the samples by SDS-PAGE, 10 ul samples were loaded onto SDS-PAGE gel (Novex, WG1403BOX) and the SDS-PAGE gel was run for 20 minutes at 80 V, then at 120 V for 1.5 hours. The SDS-PAGE gel was then transferred to nitrocellulose membrane using the wet-transfer method at 250 mA for 1.5 hours. The membrane was then blocked with LI-COR blocking buffer (LI-COR, 927-50000) for 1 hour and was probed with primary antibody (mouse anti-STAT3 (124H6) (CST #91395) 1:2000 or mouse anti-beta-Actin (8H10D10) (CST #3700) 1:10000) at 4° C. overnight. The membrane was then washed three times with TBST buffer and probed with secondary antibody (anti-mouse IgG (LI-COR, 926-68070), 1:5000) for 1 hour at room temperature. The membrane was then scanned on a LI-COR Odyssey instrument and was quantified using Image Studio Version 5.2. Concentration at 50% degradation (DC50) was calculated by fitting dose dependent degradation data using a sigmoidal equation using GraphPad Prism Version 8.0.

PD-L1 = experiment: STAT3 RT-qPCR assay, PD-L1 mRNA; conditions: SU-DHL-1 cells; for STAT3-dependent gene expression of PDL-1: FIG. 5A, FIG. 15
Procedure: (§1) SU-DHL-1 cells were treated with compounds for a designed time. 0.3-0.6 mL lysis buffer with 2-mercaptoethanol was added to the collected cell pellet or monolayer cells. The cells were vortexed until the cell was dispersed and the cells appear lysed. One volume of 70% ethanol was added to each volume of cell homogenate and vortex. 700 μL of the sample was transferred to the spin cartridge and centrifuged at 12000 g for 15s at RT. The flow-through was discarded and the process repeated until the entire samples had been processed. 700 ul wash buffer I was added to the spin cartridge and centrifuged at 12000 g for 15s at RT and the flow-through was discarded. 500 μL wash buffer II with ethanol was added to the spin cartridge and centrifuged at 12000 g for 15s at RT and the flow-through was discarded. The process was then repeated. The spin cartridge was centrifuged at 12000 g for 2 min to dry the membrane with bound RNA. 30-100 μL RNase-free water was added to the center of the spin cartridge and incubated for 1 min at RT. The spin cartridge was centrifuged at 12000 g for 2 min to elute the RNA from the membrane into the recovery tube and the purified RNA was stored. The concentration of the RNA was quantitated using Nano-Drop. cDNA was formed from the RNA by reverse transcription and qPCR of the cDNA with primer of the gene of interest and housekeeping gene was preformed using the volumes below: […]

KARPAS-299 cells = experiment: CellTiter-Glo cell viability, KARPAS-299; conditions: for CTG (% Max inh), Day 4 / IC50: KARPAS-299, ALCL (ALK+), Day 4; for IC50: read-out: CTG, IC50 μM, Day 4
STAT3 [2] = experiment: STAT3 RT-qPCR assay, STAT3 mRNA; conditions: SU-DHL-1 cells, FIG. 5A, FIG. 15
Procedure: as §1, with “The spin cartridge was centrifuged at 12000 g for 2 min to elute the RNA from the membrane into the recovery tube and the purified RNA was stored.” left out

STAT3 [3] = molecular target: T1, STAT3; experiment: STAT3 MSD assay; assay type: cell-based
Procedure: 100 nl of compounds were added into the intermediate plate with Echo (Labcyte 550) from source plate containing a 3-fold serial dilution from top concentration of 1 mM. Cells were seeded into 96-well plates (4×10^4 cells/well/100 ul media), mixed well, and incubated for 24 hours. The media was aspirated from the cultures and 60 μL pre-chilled PIPA lysis buffer (Boston BioProducts BP-115D) with protease/phosphatase inhibitor (Roche 05892791001/Roche 04906837001) was added into the well to lyze the cells for 20 minutes at 4° C. The MSD plate (L15XA) was coated with 2 ug/ml capture antibody (ab119352) in PBS and incubated at 4° C. overnight. The next day, the plate was washed three times with TBST (CST #99975), 150 μL/well. MSD plates were blocked with 150 μL blocking buffer per well and shaken for 1 hr at RT and 600 rpm. The blocking buffer was 3% Blocker A (MSD, R93BA-4) in TBST. The MSD plate was washed three times with 150 μL/well of TBST and 70 μL cell lysate was added into the well and shaken for 1 hour at RT and 600 rpm. The MSD plate was washed three times with 150 μL/well of TBST and added 25 μL/well of detection antibody (ab68153) to a final concentration of 1 μg/ml diluted in 1% blocking buffer and shaken for 1 hour at RT and 600 rpm. MSD plate was washed three times with 150 μL/well of TBST and added 25 μL/well of SULFO-TAG anti-rabbit antibody (MSD, R32AB-1) to a final concentration of 1 μg/mL diluted in 1% blocking buffer and shaken for 1 hour at RT and 600 rpm. The MSD plate washed three times with 150 μL/well of TBST and added 150 μL/well of 2×MSD reading buffer diluted from 4× (MSD, R92TC-2) with water. Lastly the MSD instrument was read.

SUP-M2 cells = experiment: CellTiter-Glo cell viability, SUP-M2; conditions: for CTG (% Max inh), Day 4 / IC50: SUP-M2, ALCL (ALK+), Day 4; for IC50: read-out: CTG, IC50 μM, Day 4
SOCS3 = experiment: STAT3 RT-qPCR assay, SOCS3 mRNA; conditions: SU-DHL-1 cells; for STAT3-dependent gene expression of SOCS3: FIG. 5A, FIG. 15
Procedure: as §1

Cn1c(=O)n(C2CCC(=O)NC2=O)c2ccc(CCCCCCC(=O)N3CC[C@H]4CC[C@@H](C(=O)N[C@@H](CCC(N)=O)C(=O)NC(c5ccccc5)c5ccccc5)N4C(=O)[C@@H](NC(=O)c4cc5cc(C(=O)P(=O)(O)O)ccc5[nH]4)C3)cc21 (some centres unmarked)
DC50 (STAT3 [1]; read-out: A549 DC50, 24 hours, tested up to 30 μM or 10 μM): < 30000 nM
STAT3-dependent gene expression of PDL-1 (PD-L1): downregulates
CTG (% Max inh), Day 4 (KARPAS-299 cells): (50-55) %
IC50 (KARPAS-299 cells): 0.14 µM
STAT3-dependent gene expression of STAT3 (STAT3 [2]): downregulates
STAT3 levels, MSD DC90 (μM) at 24 hr (STAT3 [3]; SU-DHL-1, 24 hr): 0.15 µM
DC50 (STAT3 [3]; read-out: MSD DC50, MOLM-16 cells): 4 nM
DC50 (STAT3 [3]; read-out: MSD DC50, SU-HDL-1 cells): 28 nM
CTG (% Max inh), Day 4 (SUP-M2 cells): (>95) %
IC50 (SUP-M2 cells): 0.61 µM
STAT3-dependent gene expression of SOCS3 (SOCS3): downregulates

Cc1ncsc1-c1ccc([C@H](C)NC(=O)[C@@H]2C[C@@H](O)CN2C(=O)[C@@H](NC(=O)CCCCc2ccc(CO[C@H](C)[C@H](CCC(N)=O)NC(=O)[C@@H]3Cc4cccc5c4N3C(=O)[C@@H](NC(=O)c3cc4cc(C(=O)P(=O)(O)O)ccc4[nH]3)CC5)cc2)C(C)(C)C)cc1 [Compound I-227]
DC50 (STAT3 [1]; read-out: A549 DC50, 24 hours, tested up to 30 μM or 10 μM, tested form: diammonium): < 30000 nM
STAT3-dependent gene expression of PDL-1 (PD-L1; tested form: diammonium): downregulates
IC50 (PD-L1; read-out: mRNA (RT-qPCR) IC50 (μM), 24 hr PD-L1, 24 hr, tested form: diammonium): 0.03 µM
CTG (% Max inh), Day 4 (KARPAS-299 cells; tested form: diammonium): (85) %
cell proliferation (KARPAS-299 cells; KARPAS-299, FIG. 16, tested form: diammonium): inhibit
IC50 (KARPAS-299 cells; tested form: diammonium): 0.047 µM
STAT3-dependent gene expression of STAT3 (STAT3 [2]; tested form: diammonium): downregulates
STAT3 MSD % Amax (STAT3 [3]; DEL, 24 hr, tested form: diammonium): 97%
STAT3 MSD % Amax (STAT3 [3]; KARPAS-299, 24 hr, tested form: diammonium): 99%
STAT3 MSD % Amax (STAT3 [3]; KI-JK, 24 hr, tested form: diammonium): 95%
STAT3 MSD % Amax (STAT3 [3]; SR-786, 24 hr, tested form: diammonium): 99%
STAT3 MSD % Amax (STAT3 [3]; SU-DHL-1, 24 hr, tested form: diammonium): > 95%
STAT3 MSD % Amax (STAT3 [3]; SUP-M2, 24 hr, tested form: diammonium): 95%
DC50 (STAT3 [3]; read-out: STAT3 MSD DC50, DEL, 24 hr, tested form: diammonium): 28 nM
DC50 (STAT3 [3]; read-out: STAT3 MSD DC50, KARPAS-299, 24 hr, tested form: diammonium): 13 nM
DC50 (STAT3 [3]; read-out: STAT3 MSD DC50, KI-JK, 24 hr, tested form: diammonium): 39 nM
DC50 (STAT3 [3]; read-out: STAT3 MSD DC50, SR-786, 24 hr, tested form: diammonium): 9 nM
DC50 (STAT3 [3]; read-out: STAT3 MSD DC50, SU-DHL-1, 24 hr, tested form: diammonium): 15 nM
DC50 (STAT3 [3]; read-out: STAT3 MSD DC50, SUP-M2, 24 hr, tested form: diammonium): 62 nM
CTG (% Max inh), Day 4 (SUP-M2 cells; tested form: diammonium): (>95) %
cell proliferation (SUP-M2 cells; SUP-M2, FIG. 16, tested form: diammonium): inhibit
IC50 (SUP-M2 cells; tested form: diammonium): 0.125 µM
STAT3-dependent gene expression of SOCS3 (SOCS3; tested form: diammonium): downregulates
IC50 (SOCS3; read-out: mRNA (RT-qPCR) IC50 (μM), 24 hr SOCS3, 24 hr, tested form: diammonium): 0.066 µM
